# Library screen at single concentrations

Data taken from ChEMBL document CHEMBL3988442, “University of Dundee, Small-Polar-MMV Screening Library” (2021).

Mtb glucose medium: 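Growth of Mycobacterium tuberculosis over 3 days (7H9 medium with glucose and tyloxapol); the read-out is not stated. Compounds at 50 µM. The record gives no direction; compounds that gave an IC50 in retests scored well above the rest, so higher reads as more growth inhibition. Size under these conditions: about 69,000 compounds, about 760 of them at 50% or above in at least one test.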
Mtb cholesterol medium: 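Whole-cell growth test on Mycobacterium tuberculosis, read after 4 days in a medium based on cholesterol and the lipid DPPC; the read-out is not stated. Compounds at 50 µM. The record gives no direction; compounds that gave an IC50 in retests scored well above the rest, so higher reads as more growth inhibition. About 69,000 compounds were tested under these conditions; 0.54% (about 370) showed 50% or more at least once.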

The filed quantity is “Percent Effect” (%). The controls that fix the scale are not given in the record; negative values are as filed. Compounds were drawn at random from those tested, without regard to their results. Two or more numbers in one place are separate tests of the same structure; such repeats can differ widely.

For O=C(CSCC1CC1)N1CCCN(c2ccc(F)cc2)CC1 the result was Mtb glucose medium: 17.09% & 2.03%; Mtb cholesterol medium: -10.52%. With CC(C)(CN1CCC(Cc2ccc(C(=O)O)cc2)C1)N1CCOCC1 (stereo not drawn) the screen gave Mtb glucose medium: 7.148%; Mtb cholesterol medium: 3.308%. O=C(CC1COCCN1)NCCc1noc(-c2ccccc2)n1 (stereo not drawn) read Mtb glucose medium: -31.18%; Mtb cholesterol medium: -13.67%. For Cc1noc(C)c1CN(C)C(=O)NCCOc1ccc(F)cc1F the result was Mtb glucose medium: 5.46%; Mtb cholesterol medium: -9.275%. With CCC(=O)N1CCC2(C=C(C(=O)N(C)C)c3ccccc32)CC1 the screen gave Mtb glucose medium: -40.41%; Mtb cholesterol medium: -20.41%. With Cc1nc(C)c(C(=O)N2CCCC2(C)C(=O)NC2CCCC2)o1 (stereo not drawn) the screen gave Mtb glucose medium: -1.22%; Mtb cholesterol medium: -4.141%. CNC(=O)c1ccc(=O)n(Cc2csc(N(C)C(C)=O)n2)c1 read Mtb glucose medium: -9.729%; Mtb cholesterol medium: -16.77%.

O=C1COc2c(cccc2C(=O)N2CCCCC2Cn2cccn2)N1 (stereo not drawn) gave Mtb glucose medium: -1.244%; Mtb cholesterol medium: -2.309%. Result for O=C(O)C(F)(F)F.[H][C@]12CN(Cc3cccnc3)C(=O)[C@@]1([H])CN(S(=O)(=O)c1ccccc1)C2 was Mtb glucose medium: -0.6515%; Mtb cholesterol medium: 0.5083%. Result for O=C(NCCCc1nc(=O)[nH][nH]1)c1ccc(Cl)cn1 was Mtb glucose medium: 6.135%; Mtb cholesterol medium: -13.53%. Cc1ccc(N2CCCC3(CCN(C(=O)c4sccc4C)C3)C2)nn1 (stereo not drawn) gave Mtb glucose medium: -19.43%; Mtb cholesterol medium: -20.35%. Result for Cc1ccc(-c2nn(-c3cccc(F)c3)cc2CN(C)CCO)o1 was Mtb glucose medium: 20.96% & 12.75%; Mtb cholesterol medium: 12.83%. With CCOc1ccccc1CC(=O)N1C[C@@H](C(=O)O)[C@H](c2ccncc2)C1 the screen gave Mtb glucose medium: -47.91%; Mtb cholesterol medium: -45%. For CC(C)Nc1ncccc1C(=O)NC1CC(=O)N(CC(F)(F)F)C1 (stereo not drawn) the result was Mtb glucose medium: 11.79% & -49.06%; Mtb cholesterol medium: -20.01%.

For Cc1cc2c(=O)n(CCOCCO)cnc2s1 the result was Mtb glucose medium: 6.327%; Mtb cholesterol medium: -11.83%. O=C(O)C(F)(F)F.[H][C@@]12COC[C@]1(COCC(=O)N(C)C)CN(CCc1ccccc1)C2 read Mtb glucose medium: -8.516%; Mtb cholesterol medium: -5.652%. CC(C)N(C)CC(=O)NC1CCc2nccn2C1 (stereo not drawn) gave Mtb glucose medium: -11.09%; Mtb cholesterol medium: -6.711%. Cc1nc(-c2cnn(C)c2)nc2c1CN(C(=O)c1cccn1C)CC2 gave Mtb glucose medium: -7.315% & -7.997%; Mtb cholesterol medium: 9.781%. CC(C)(C)c1nc(CN2CCOC(Cn3cncn3)C2)cs1 (stereo not drawn) read Mtb glucose medium: -11.8%; Mtb cholesterol medium: -10.13%. For CS(=O)(=O)c1cn[nH]c1C1CCCCN1C(=O)c1cncs1 (stereo not drawn) the result was Mtb glucose medium: 4.324%; Mtb cholesterol medium: -14.72%. For O=C(CN1CCOC(Cn2cncn2)C1)NCc1cccs1 (stereo not drawn) the result was Mtb glucose medium: -45.9%; Mtb cholesterol medium: -16.31%.

For O=C1CCC2(CCN(CC[C@@H](O)c3ccccc3)CC2)CN1CC1CC1 the result was Mtb glucose medium: -9.966%; Mtb cholesterol medium: -17.41%. Cc1cnn(C2CCCN(C(=O)c3ccccc3-n3cnnn3)C2)c1 (stereo not drawn) read Mtb glucose medium: 25.33%; Mtb cholesterol medium: -8.216%. For COc1c(CNCCNC(=O)c2ccc(C)c(F)c2)c(C)nn1C the result was Mtb glucose medium: -17.72% & -3.153%; Mtb cholesterol medium: -1.1%. CN(C)S(=O)(=O)c1ccc(-c2nc(C#N)c(NC3CCCCC3)o2)o1 read Mtb glucose medium: 13.62%; Mtb cholesterol medium: -1.831%. For CCOC1COC2(CCN(C(=O)c3cccc(C)n3)CC2)C1.O=C(O)C(F)(F)F (stereo not drawn) the result was Mtb glucose medium: 9.197%; Mtb cholesterol medium: -11.93%. For OCC(O)CSCc1nnc(-c2ccc(Cl)cc2)o1 (stereo not drawn) the result was Mtb glucose medium: 27.1%; Mtb cholesterol medium: 7.999%. Result for Cc1cc(C(=O)N2C[C@H](CO)C[C@H](CN3CCOCC3)C2)nc(C)n1 was Mtb glucose medium: -1.501% & -6.346%; Mtb cholesterol medium: -2.508%.

COc1cc(CO)c(OC)c2c1OCO2 read Mtb glucose medium: 13.14%; Mtb cholesterol medium: -5.853% & -5.721%. For Cc1cc(C(=O)N2CCc3nc(C4CCCCN4)ncc3C2)cs1.Cl (stereo not drawn) the result was Mtb glucose medium: -9.705%; Mtb cholesterol medium: -17.68%.

Some entries from above, unchanged:

structure	Mtb glucose medium	Mtb cholesterol medium
Cc1nc(-c2cnn(C)c2)nc2c1CN(C(=O)c1cccn1C)CC2	-7.315 & -7.997	9.781
CC(C)Nc1ncccc1C(=O)NC1CC(=O)N(CC(F)(F)F)C1 (stereo not drawn)	11.79 & -49.06	-20.01
CCC(=O)N1CCC2(C=C(C(=O)N(C)C)c3ccccc32)CC1	-40.41	-20.41
Cc1cc(C(=O)N2C[C@H](CO)C[C@H](CN3CCOCC3)C2)nc(C)n1	-1.501 & -6.346	-2.508